No constants are given. Whether binding was seen depends on the method and setting. In cells and extracts the contact can be indirect. Some binding calls cover weakened binding; strength is not graded here.
Legend:
[1] = molecular target: kinesin heavy chain KIF5B (mouse (endogenous in skeletal muscle)) (UniProt Q61768); assay: co-IP; muscle (TA, gastrocnemius) lysates of WT and Drp/MC mice at P25, also of Drp/MC mice treated or not with Mdivi-1; lysis buffer 20 mM Tris-HCl pH 8, 137 mM NaCl, 10% glycerol, 1% NP-40, 2 mM EDTA; overnight with antibody to Drp1 or KIF5B and protein A or G Sepharose; control IgG as negative control; immunoblot
[2] = molecular target: dynamin-related protein 1 (Drp1) (not stated (transgene in Drp/MC mice; endogenous mouse Drp1 also present)) (UniProt Q8K1M6); assay: as above
[3] = molecular target: dynamin-related protein 1 (Drp1) (not stated (transgene in Drp/MC mice; endogenous mouse Drp1 also present)) (UniProt Q8K1M6); assay: proximity ligation; Duolink PLA on fixed, permeabilised TA muscle sections and single myofibres of WT/PhAM and Drp/MC/PhAM mice, also of Drp/MC mice treated or not with Mdivi-1; PLA puncta counted

Chains of the proteins cited; added tags and fusions are not shown.
UniProt Q61768: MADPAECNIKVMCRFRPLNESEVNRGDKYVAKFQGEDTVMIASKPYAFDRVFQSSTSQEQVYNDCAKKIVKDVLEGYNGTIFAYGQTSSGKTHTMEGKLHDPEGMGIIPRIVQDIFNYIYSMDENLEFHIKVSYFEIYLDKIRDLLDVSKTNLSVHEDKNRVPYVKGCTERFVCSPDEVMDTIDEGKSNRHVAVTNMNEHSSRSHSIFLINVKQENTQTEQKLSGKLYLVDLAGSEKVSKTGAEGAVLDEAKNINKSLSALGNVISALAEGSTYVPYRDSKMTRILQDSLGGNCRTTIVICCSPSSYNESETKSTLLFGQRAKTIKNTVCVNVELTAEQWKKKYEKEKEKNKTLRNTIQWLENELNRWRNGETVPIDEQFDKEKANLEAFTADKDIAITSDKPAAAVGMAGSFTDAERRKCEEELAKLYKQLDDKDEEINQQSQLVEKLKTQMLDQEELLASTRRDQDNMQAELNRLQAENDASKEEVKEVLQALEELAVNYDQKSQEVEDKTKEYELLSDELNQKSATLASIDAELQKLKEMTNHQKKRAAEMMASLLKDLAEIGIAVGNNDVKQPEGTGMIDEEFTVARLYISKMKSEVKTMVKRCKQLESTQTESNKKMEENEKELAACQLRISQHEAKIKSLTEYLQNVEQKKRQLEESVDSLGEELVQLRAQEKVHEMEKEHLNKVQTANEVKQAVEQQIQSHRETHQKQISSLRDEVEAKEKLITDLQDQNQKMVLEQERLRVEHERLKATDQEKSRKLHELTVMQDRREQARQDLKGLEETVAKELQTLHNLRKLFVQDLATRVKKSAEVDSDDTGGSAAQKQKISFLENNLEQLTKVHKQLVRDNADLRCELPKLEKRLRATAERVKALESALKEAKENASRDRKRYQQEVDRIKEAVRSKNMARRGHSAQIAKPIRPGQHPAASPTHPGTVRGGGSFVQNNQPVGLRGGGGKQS
UniProt Q8K1M6: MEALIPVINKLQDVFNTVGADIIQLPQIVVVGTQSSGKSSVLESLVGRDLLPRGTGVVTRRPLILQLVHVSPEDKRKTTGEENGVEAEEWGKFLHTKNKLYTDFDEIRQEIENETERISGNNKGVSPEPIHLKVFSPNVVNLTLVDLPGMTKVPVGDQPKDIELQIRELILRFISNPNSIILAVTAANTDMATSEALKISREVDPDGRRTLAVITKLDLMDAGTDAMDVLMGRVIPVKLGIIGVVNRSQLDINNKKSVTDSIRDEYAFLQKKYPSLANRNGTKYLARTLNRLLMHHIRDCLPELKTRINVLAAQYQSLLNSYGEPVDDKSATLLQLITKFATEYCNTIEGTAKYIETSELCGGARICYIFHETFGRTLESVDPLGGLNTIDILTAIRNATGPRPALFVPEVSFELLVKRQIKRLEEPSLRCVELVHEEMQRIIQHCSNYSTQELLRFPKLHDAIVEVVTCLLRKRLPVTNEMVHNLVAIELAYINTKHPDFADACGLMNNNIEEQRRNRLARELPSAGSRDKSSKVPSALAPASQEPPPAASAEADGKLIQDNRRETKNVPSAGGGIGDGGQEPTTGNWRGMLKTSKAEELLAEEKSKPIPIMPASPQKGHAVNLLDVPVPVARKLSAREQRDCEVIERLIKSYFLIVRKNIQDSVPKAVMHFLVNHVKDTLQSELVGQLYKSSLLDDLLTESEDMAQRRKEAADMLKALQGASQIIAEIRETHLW
UniProt O88447: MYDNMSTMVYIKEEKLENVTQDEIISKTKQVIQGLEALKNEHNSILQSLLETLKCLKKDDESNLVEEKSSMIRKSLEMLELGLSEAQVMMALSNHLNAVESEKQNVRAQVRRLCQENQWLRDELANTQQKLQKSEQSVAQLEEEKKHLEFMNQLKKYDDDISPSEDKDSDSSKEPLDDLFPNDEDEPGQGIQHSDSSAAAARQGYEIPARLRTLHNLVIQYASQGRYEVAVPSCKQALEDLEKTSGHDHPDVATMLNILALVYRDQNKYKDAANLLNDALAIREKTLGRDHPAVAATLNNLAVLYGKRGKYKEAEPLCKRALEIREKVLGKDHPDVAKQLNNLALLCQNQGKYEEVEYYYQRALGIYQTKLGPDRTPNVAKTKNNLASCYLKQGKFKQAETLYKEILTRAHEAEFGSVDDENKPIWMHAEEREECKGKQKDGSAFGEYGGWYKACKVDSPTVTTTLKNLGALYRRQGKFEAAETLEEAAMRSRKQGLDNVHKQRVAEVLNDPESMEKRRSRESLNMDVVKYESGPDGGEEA

dynamin-related protein 1 (Drp1) (from UniProt Q8K1M6 1-736)
binding [1]: no binding

kinesin heavy chain KIF5B (from UniProt Q61768 1-963)
binding [2]: no binding

kinesin light chain 1 (KLC1) (from UniProt O88447 1-541)
binding [3]: binds
binding [2]: binds

From PMC7370230
